Laboratory results reported in PubChem BioAssay AID540276 (National Center for Advancing Translational Sciences (NCATS), 2011).
Hit rate of the full screen: of about 300,000 compounds, about 5,400 (1.8%) were called active. Inconclusive means that the source gave no clear call. Such entries were picked first, then a sample of the others. The call rests on the fitted dose curve; tested in HEK293 cells. Where the call is inconclusive, the potency comes from a doubtful curve fit.

Experiment: qHTS for inhibitors of binding or entry into cells for Marburg Virus
Conditions: Marburg virus pseudotyped entry inhibition, cell reporter; series mostly up to 37.8 µM
Potency means the concentration at half of the fitted maximal effect.

| SMILES | Potency |
| --- | --- |
| C=CCNC(=O)C1=NOC(CNC(=O)c2c(-c3ccccc3Cl)noc2C)C1 (configuration not stated) | inconclusive: 0.708 µM [inhibitor, full curve, poor fit] |
| CCc1ccc(CNC(=O)c2ccc3c(c2)N=C(C)c2cc(C)ccc2S3)cc1 | inconclusive: 7.94 µM [inhibitor, partial curve, poor fit] |
| Cc1cc(=O)n2nc(N3CCC(C(=O)NC4CCCc5ccccc54)CC3)sc2n1 (configuration not stated) | inactive |
| O=S(=O)(NCCOC12CC3CC(CC(C3)C1)C2)c1cccc2nsnc12 | inconclusive: 35.5 µM [inhibitor, single point] |
| COc1ccc(N2C(N)=C(C#N)C(c3ccsc3)C3=C2CCCC3=O)c(OC)c1 (configuration not stated) | inconclusive: 0.1 µM [inhibitor, full curve, poor fit] |
| COc1ccc(NS(=O)(=O)c2cc(C(=O)N3CCN(C/C=C/c4ccccc4)CC3)ccc2C)cc1 | inconclusive: 11.2 µM [inhibitor, single point] |
| CN1C(=O)C(=Cc2ccc(N3CCCCC3)o2)C(=O)N(C)C1=S | inconclusive: 3.16 µM [activator, partial curve, poor fit] |
| CCN(CC(=O)Nc1ccc2c(c1)OCCO2)S(=O)(=O)c1cccs1 | inconclusive: 1.26 µM [inhibitor, single point] |
| COC(=O)c1ccc(OC(=O)C2CC(=O)N(c3cccc(C)c3)C2)cc1 (configuration not stated) | inactive |
| Cc1ccc(NCc2cccn2-c2nnc(N3CCC(C(=O)NC(C)C)CC3)s2)cc1 | inactive |
| COc1ccc(-c2cc(C(F)(F)F)c(C#N)c(SCC(=O)Nc3ccc(F)cc3)n2)cc1 | inactive |
| COc1ccccc1C(=O)CSc1n[nH]c(N)n1 | inconclusive: 6.31 µM [inhibitor, single point] |
| CCN(CC)S(=O)(=O)c1ccc(S(=O)(=O)N2CCN(C(=O)c3ccco3)CC2)cc1 | inactive |
| Cc1cccc(-c2nsc(SCC(=O)NCc3ccc4c(c3)OCO4)n2)c1 | inactive |
| C/C(=N\NC(=O)C(c1ccccc1)c1ccccc1)c1ccccn1 | inconclusive: 4.61 µM [inhibitor, full curve] |
| Cc1cccc(OCC(=O)Nc2ccc(N3CCN(C(=O)c4ccccc4)CC3)cc2)c1 | inconclusive: 0.92 µM [inhibitor, single point] |
| COc1ccc(C(=O)N2CCN(Cc3ccc4c(c3)OCO4)CC2)cc1[N+](=O)[O-] | inconclusive: 6.31 µM [inhibitor, partial curve, poor fit] |
| CCC(=O)c1c[nH]c(C(=O)NCc2ccccc2OC)c1 | inconclusive: 3.55 µM [inhibitor, single point] |
| O=C1CN(C(=O)c2ccc(S(=O)(=O)N3CCCCC3)cc2)C(c2ccc(F)cc2)c2cc(F)ccc2N1 (configuration not stated) | inconclusive: 31.6 µM [inhibitor, single point] |
| COc1ccc(CCN=C(N)NS(=O)(=O)c2cccs2)cc1OC | inconclusive: 35.5 µM [activator, partial curve, poor fit] |
| Cc1nc2nc(SCC(N)=O)[nH]c2cc1Br | inconclusive: 10 µM [activator, partial curve, poor fit] |
| FC(F)(F)c1cccc(NC(=S)Nc2ccc(Cl)c(Cl)c2)c1 | inconclusive: 12.6 µM [inhibitor, partial curve, poor fit] |
| COc1cccc(C(=O)NCCSc2c(-c3ccc(F)cc3)[nH]c3ccccc23)c1OC | inconclusive: 14.1 µM [inhibitor, partial curve, poor fit] |

| SMILES | Potency |
| --- | --- |
| CCN(CC)c1ccc(C2NCC(c3ccc([N+](=O)[O-])cc3)O2)cc1 (configuration not stated) | inconclusive: 13 µM [activator, partial curve, poor fit] |
| COc1cc([C@H]2[C@@H]3C(=O)N(c4ccc(F)cc4)C(=O)[C@H]3ON2c2ccccc2)ccc1O | inactive |
| Cc1cc(C)cc(N(CC(=O)NC2CCCCC2)C(=O)CCCC(=O)Nc2ccccn2)c1 | inconclusive: 3.55 µM [inhibitor, single point] |
| Cc1ccc(CCSc2ccc(F)cc2)cn1 | inactive |
| CCN1C(=O)C(=O)N(CC(=O)N(C)CC(=O)Nc2ccccc2Cl)C1=O | inconclusive: 8.91 µM [activator, partial curve, poor fit] |
| N=c1c(C(=O)NCc2ccccc2)cc2c(=O)n3ccccc3nc2n1CCCN1CCOCC1 | inconclusive: 11.2 µM [inhibitor, partial curve] |
| COc1ccc(CC2C(=O)NC(C)C(=O)N(C)C3C(=O)N(C)C(Cc4ccc(O)c(c4)Oc4ccc(cc4)C3O)C(=O)NC(C)C(=O)NC(C)C(=O)N2C)cc1 (configuration not stated) | inconclusive: 0.0891 µM [inhibitor, full curve, poor fit] |
| CCCCc1ccc(/C=C2/C(=O)ON=C2c2ccccc2)s1 | inactive |
| CCOC(=O)c1sc(NC(=O)CCN2CCN(C)CC2)c(C(=O)OCC)c1C | inactive |
| Cc1ccc(C(=O)NCCn2c(C)cc3ccccc32)cc1C | inconclusive: 35.5 µM [inhibitor, single point] |
| COc1ccc(C(=O)Nn2c(SCC(=O)c3ccc(Cl)cc3)nc3ccccc3c2=O)cc1 | inconclusive: 13 µM [inhibitor, partial curve, poor fit] |
| Cc1ccc(C2=NN3C(C2)c2ccccc2OC32C(=O)Nc3ccccc32)cc1 (configuration not stated) | inactive |
| O=C(NNC(=O)c1cccc(Cl)c1)NNC(=O)c1cccc(Cl)c1 | inactive |
| O=C(CSc1ccsc1[N+](=O)[O-])N1CCN(c2ccccn2)CC1 | inconclusive: 22.4 µM [inhibitor, partial curve, poor fit] |
| COCCNC(=O)/C(C#N)=C/c1ccccc1Br | inconclusive: 35.5 µM [inhibitor, single point] |
| Cc1ccnc(NS(=O)(=O)c2ccc(NC(=O)c3ccc(S(=O)(=O)N4CCOCC4)cc3)cc2)n1 | inconclusive: 0.112 µM [activator, full curve, poor fit] |
| Cc1ccc(N)c(C(=O)c2ccc(Br)cc2)c1 | inconclusive: 39.8 µM [inhibitor, partial curve, poor fit] |
| Cc1nn(-c2ccccc2)c(Cl)c1CN(C(=O)CCl)c1ccc(Cl)cc1 | inconclusive: 23.1 µM [inhibitor, single point] |
| COC(=O)c1ccc(COC(=O)C2CCN(S(=O)(=O)c3c(Cl)cccc3Cl)CC2)o1 | inconclusive: 35.5 µM [activator, single point] |
| COc1ccc(CC(=O)NNS(=O)(=O)c2ccccc2[N+](=O)[O-])cc1OC | inactive |
| O=Cc1c(N2CCSCC2)nc2ccccn2c1=O | inactive |
| Cc1ccc(NC(=S)NCc2ccccc2)cc1C | inactive |
| CCC(CC)C(=O)OCC(=O)Nc1ccc(S(=O)(=O)N2CCOCC2)cc1OC | inactive |

Exported with bars between the fields: entries from further up
SMILES | Potency
COc1ccc(CC(=O)NNS(=O)(=O)c2ccccc2[N+](=O)[O-])cc1OC | inactive
O=Cc1c(N2CCSCC2)nc2ccccn2c1=O | inactive
Cc1ccc(NC(=S)NCc2ccccc2)cc1C | inactive
CCC(CC)C(=O)OCC(=O)Nc1ccc(S(=O)(=O)N2CCOCC2)cc1OC | inactive

Two of the compounds above, with tabs.
SMILES	Potency
Cc1cc(C)cc(N(CC(=O)NC2CCCCC2)C(=O)CCCC(=O)Nc2ccccn2)c1	inconclusive: 3.55 µM [inhibitor, single point]
Cc1ccc(CCSc2ccc(F)cc2)cn1	inactive

Further records follow.

| SMILES | Potency |
| --- | --- |
| COc1ccc(NC(=O)CN(C)C(=O)CCCNC(=O)c2ccc(Cl)cc2)cc1 | inconclusive: 2.24 µM [activator, partial curve, poor fit] |
| CCc1cc(C(=O)Nc2cc(S(=O)(=O)N(CC)CC)ccc2N2CCOCC2)sc1C | inconclusive: 35.5 µM [inhibitor, single point] |
| O=C(CCCOc1ccc(Cl)cc1)N1CCOCC1 | inconclusive: 14.1 µM [activator, partial curve, poor fit] |
| CCN(C(=O)CSc1nnc(-c2ccc(OC(F)F)cc2)n1N)C1CCS(=O)(=O)C1 (configuration not stated) | inconclusive: 12.6 µM [activator, partial curve, poor fit] |
| COc1ccc(C(=O)N/N=C/c2cccc3cccnc23)cc1 | inconclusive: 28.2 µM [inhibitor, single point] |
| COc1ccc(CCNC(=O)C2COc3ccccc3O2)cc1OC (configuration not stated) | inactive |
| CC(C)(C)c1ccc(C(=O)Nc2nonc2-c2nc3ccccc3[nH]2)cc1 | inactive |
| Cc1ccc(C)c(NC(=S)NCCN(C2CCCCC2)C2CCCC2)c1 | inconclusive: 2 µM [inhibitor, full curve, poor fit] |
| Cc1oc2ccc(O)c(CN(C)Cc3ccccc3)c2c1C(=O)Nc1cccc(C(F)(F)F)c1 | inconclusive: 17.8 µM [inhibitor, single point] |
| C/C(=N/NC(=O)CNC(=O)/C=C/c1ccco1)c1ccc(Cl)cc1 | inconclusive: 1.26 µM [activator, single point] |
| CC12CCC(C)(c3nc4ccccc4nc31)C2(C)C | inactive |
| O=C1CC(C(=O)Nc2ccc(Cl)cc2)n2ncnc2N1 (configuration not stated) | inconclusive: 20 µM [activator, partial curve, poor fit] |
| Cc1ccc(-n2nc(C)c3c2OC(N)=C(C#N)C3c2cccs2)cc1 (configuration not stated) | inactive |
| COc1ccc(-c2nnc(-c3cccnc3)o2)cc1OC | inconclusive: 0.259 µM [activator, single point] |
| Cc1ccc(S(=O)(=O)NNC(=S)Nc2ccc(Cl)cc2)cc1 | inactive |
| O=C(NC1CCCCC1)C(c1cccs1)N(Cc1cccs1)C(=O)c1ccco1 (configuration not stated) | inconclusive: 32.6 µM [inhibitor, single point] |
| O=C(N/N=C/c1ccc(OC(=O)c2ccccc2Br)cc1)c1ccccn1 | inactive |
| Cc1cccc(N=C2NN=C(c3ccccc3F)CS2)c1C | inconclusive: 1 µM [activator, partial curve, poor fit] |
| Cc1cccnc1NC(=O)CCc1c[nH]c2ccccc12 | inactive |
| COC(=O)c1cc(=O)nc2sc3cc(OC)ccc3n12 | inconclusive: 7.3 µM [activator, partial curve, poor fit] |
| CC(=O)c1cccc(NC(=O)CCOc2ccccc2)c1 | inconclusive: 35.5 µM [activator, single point] |
